Laboratory results published in patent US11083805B2, “Radiolabeled GRPR-antagonists for diagnostic imaging and treatment of GRPR-positive cancer” (Advanced Accelerator Applications International SA, priority 2012, dated 2021).
At least one peptide structure holds a part that was inferred or is arguable (an end, a ring closure or a residue).

Test system: PC-3 tumors (hGRPR+)
Experiment: Biodistribution in GRPR+ tumor bearing mice
Assay type: in vivo, female SCID mice
Details: iv, 10 pmol total peptide
Procedure: A 150 μL bolus containing a suspension of 1.5×10^7 freshly harvested human PC-3 cells in normal saline was subcutaneously injected in the flanks of female SCID mice. The animals were kept under aseptic conditions and 2-3 weeks later developed well-palpable tumors at the inoculation site (80-150 mg).
On the day of the experiment, the selected radiopeptide was injected in the tail vein of tumor-bearing mice as a 100 μL bolus (1-2 μCi, 10 pmol total peptide; in saline/EtOH 9/1 v/v). Animals were sacrificed in groups of four under a mild ether anesthesia by cardiac puncture at predetermined time points pi (postinjection). Additional sets of three to four animals were co-injected with excess [Tyr^4]BBN (≈40 nmol) along with test radiopeptide and were sacrificed at 4 h pi (blocked animals). Samples of blood and tissues of interest were immediately collected, weighed and measured for radioactivity in a γ-counter. Stomach and intestines were not emptied of their contents, but measured as collected. Biodistribution data were calculated as percent injected dose per gram tissue (% ID/g) using the Microsoft Excel program with the aid of suitable standards of the injected dose.

CC(C)CC(CC(C)C)NC(=O)[C@H](Cc1c[nH]cn1)NC(=O)CNC(=O)[C@@H](NC(=O)[C@H](C)NC(=O)[C@H](Cc1c[nH]c2ccccc12)NC(=O)[C@H](CCC(N)=O)NC(=O)[C@@H](Cc1ccccc1)NC(=O)COCC(=O)Nc1ccc(CNC(=O)CN2CCN(CC(=O)O)CCN(CC(=O)O)CCN(CC(=O)O)CC2)cc1)C(C)C [[67Ga]NeoBOMB-1] [^67Ga-DOTA-(p-aminobenzylamine-diglycolic acid)-[DPhe^6,His^12-CO—NH—CH[(CH2CH(CH3)2]2,des-Leu^3, des-Met^4]BBN(6-14), metal not drawn]
uptake in PC-3 tumor (1 h pi): > 30 % ID/g | uptake in PC-3 tumor (4 h pi): > 30 % ID/g
